Measured values as given in the supplement of paper PMC6078165.
± gives the standard deviation of the averaged measurements. Values are relative to the signal before dosing, not to a vehicle control; the signal also falls without drug.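 The cancer cells are triple-negative breast cancer lines of basal-like or mesenchymal-like type, grown without fibroblasts. A drop in red signal reflects loss of mitochondrial integrity, a stand-in for apoptotic death.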

Experiments:
[1] = tested on: HCC1143; experiment: relative JC-1 red fluorescence (viability) vs pre-drug, monoculture (fraction); higher = more viable cancer cells; settings: coculture fibroblast: none (monoculture)
Protocol: (§1)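 JC-1 labelled TNBC cells grown in monoculture (density kept equal with unlabelled cancer cells) in 384-well plates in FluoroBrite medium, treated with one of 42 anticancer drugs at 0.1, 1, 10 or 100 uM. JC-1 red fluorescence (mitochondrial integrity, surrogate of apoptotic death) was read by plate reader every 8 h for 72 h. Values are normalised to each well's pre-drug value, with background from alamethicin. The stock of one drug was tenfold lower, so its dose labels may be too high. Monoculture values are repeated alongside each fibroblast plate and are averaged here.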

[2] = tested on: Hs578T; experiment: as above; settings: coculture fibroblast: none (monoculture)
Protocol: as §1

Nc1ncn([C@@H]2O[C@H](CO)[C@@H](O)[C@H]2O)c(=O)n1 [Azacitidine]
relative JC-1 red fluorescence
Settings | 8 h | 16 h | 24 h | 32 h | 40 h | 48 h | 56 h | 64 h | 72 h
[1], 0.1 µM | 0.831 ± 0.018 | 0.773 ± 0.019 | 0.716 ± 0.025 | 0.667 ± 0.02 | 0.62 ± 0.019 | 0.606 ± 0.019 | 0.586 ± 0.023 | 0.582 ± 0.015 | 0.581 ± 0.019
[1], 1 µM | 0.8881 ± 0.0048 | 0.8034 ± 0.0066 | 0.7493 ± 0.0073 | 0.711 ± 0.0089 | 0.68 ± 0.021 | 0.664 ± 0.021 | 0.656 ± 0.018 | 0.654 ± 0.019 | 0.655 ± 0.02
[1], 10 µM | 0.873 ± 0.037 | 0.7969 ± 0.0012 | 0.773 ± 0.017 | 0.722 ± 0.021 | 0.691 ± 0.023 | 0.657 ± 0.023 | 0.645 ± 0.023 | 0.63 ± 0.027 | 0.624 ± 0.03
[1], 100 µM | 0.872 ± 0.024 | 0.791 ± 0.026 | 0.742 ± 0.025 | 0.707 ± 0.0082 | 0.671 ± 0.015 | 0.643 ± 0.0097 | 0.619 ± 0.0084 | 0.605 ± 0.0072 | 0.5889 ± 0.0051
[2], 0.1 µM | 0.821 ± 0.019 | 0.693 ± 0.017 | 0.6226 ± 0.0011 | 0.549 ± 0.0078 | 0.489 ± 0.0074 | 0.457 ± 0.012 | 0.424 ± 0.016 | 0.418 ± 0.022 | 0.406 ± 0.025
[2], 1 µM | 0.837 ± 0.028 | 0.707 ± 0.023 | 0.665 ± 0.07 | 0.604 ± 0.065 | 0.567 ± 0.071 | 0.542 ± 0.072 | 0.526 ± 0.073 | 0.53 ± 0.086 | 0.524 ± 0.092
[2], 10 µM | 0.874 ± 0.0084 | 0.6987 ± 0.0041 | 0.738 ± 0.0077 | 0.6586 ± 0.0041 | 0.635 ± 0.011 | 0.636 ± 0.012 | 0.623 ± 0.011 | 0.634 ± 0.01 | 0.636 ± 0.0064
[2], 100 µM | 0.863 ± 0.03 | 0.706 ± 0.05 | 0.715 ± 0.048 | 0.631 ± 0.05 | 0.611 ± 0.054 | 0.587 ± 0.055 | 0.559 ± 0.046 | 0.572 ± 0.056 | 0.565 ± 0.049

O=NN(CCCl)C(=O)NCCCl [Carmustine]
relative JC-1 red fluorescence
Settings | 8 h | 16 h | 24 h | 32 h | 40 h | 48 h | 56 h | 64 h | 72 h
[1], 0.1 µM | 0.9073 ± 0.0038 | 0.863 ± 0.011 | 0.829 ± 0.024 | 0.791 ± 0.042 | 0.778 ± 0.064 | 0.77 ± 0.08 | 0.753 ± 0.092 | 0.756 ± 0.096 | 0.75 ± 0.1
[1], 1 µM | 0.8645 ± 0.0066 | 0.767 ± 0.0088 | 0.70516 ± 0.00014 | 0.6542 ± 0.0059 | 0.6074 ± 0.0033 | 0.5757 ± 0.00091 | 0.5563 ± 0.0045 | 0.534 ± 0.011 | 0.519 ± 0.013
[1], 10 µM | 0.8898 ± 0.0046 | 0.793 ± 0.017 | 0.728 ± 0.019 | 0.669 ± 0.02 | 0.609 ± 0.019 | 0.57 ± 0.022 | 0.533 ± 0.026 | 0.506 ± 0.03 | 0.486 ± 0.031
[1], 100 µM | 0.836 ± 0.0054 | 0.778 ± 0.0099 | 0.713 ± 0.014 | 0.675 ± 0.016 | 0.631 ± 0.014 | 0.611 ± 0.015 | 0.589 ± 0.025 | 0.579 ± 0.029 | 0.578 ± 0.025
[2], 0.1 µM | 0.83 ± 0.015 | 0.7238 ± 0.0012 | 0.651 ± 0.031 | 0.594 ± 0.027 | 0.541 ± 0.03 | 0.523 ± 0.042 | 0.493 ± 0.042 | 0.492 ± 0.048 | 0.483 ± 0.057
[2], 1 µM | 0.757 ± 0.046 | 0.644 ± 0.0038 | 0.643 ± 0.0065 | 0.572 ± 0.011 | 0.543 ± 0.022 | 0.528 ± 0.025 | 0.509 ± 0.027 | 0.52 ± 0.034 | 0.524 ± 0.036
[2], 10 µM | 0.843 ± 0.012 | 0.741 ± 0.011 | 0.64 ± 0.028 | 0.593 ± 0.028 | 0.537 ± 0.04 | 0.506 ± 0.052 | 0.471 ± 0.062 | 0.445 ± 0.067 | 0.427 ± 0.068
[2], 100 µM | 0.7375 ± 0.0013 | 0.666 ± 0.012 | 0.652 ± 0.044 | 0.58 ± 0.049 | 0.543 ± 0.042 | 0.531 ± 0.053 | 0.52 ± 0.06 | 0.533 ± 0.064 | 0.536 ± 0.067
